The source of these data is PubChem BioAssay AID192 (DTP/NCI, 2004).

The test system of the assay is BDF1 mice, B16 melanoma ip, median survival T/C. Briefly: NCI In Vivo Anticancer Drug Screen. Data for tumor model B16 Melanoma (intraperitoneal) in B6D2F1 (BDF1) mice. The conditions noted are these: T/C endpoint: median survival time, higher T/C = longer survival. On the procedure: The antitumor activity of compounds was measured in mice bearing transplantable tumors. Survival or tumor size were measured and the results are expressed as the measurement made in the treated group (T) divided by the measurement made in the vehicle treated control group (C). The tumor model used in this assay is B16 Melanoma (intraperitoneal) in B6D2F1 (BDF1) mice

The mark [1] stands for this setting: dose: 3.0 mg/kg/injection, schedule: Q01DX009 (ip), vehicle: Klucel (hydroxypropylcellulose) (HPC).
Setting [2] is: dose: 6.0 mg/kg/injection, schedule: Q01DX009 (ip), vehicle: Klucel (hydroxypropylcellulose) (HPC).
The mark [3] stands for this setting: dose: 200.0 mg/kg/injection, schedule: Q01DX009 (ip), vehicle: saline with Tween-80.
Where [4] appears, read: dose: 0.64 mg/kg/injection, schedule: Q01DX001 (ip), vehicle: water.

The list shows only some results of the screen, not a fair sample: it gathers tests that were run many times, whatever their T/C, doses with no T/C, and many T/C values between a quarter and a half above the control. Further doses and runs are listed elsewhere. T/C is the treated group as % of the vehicle group. Some entries give survivors of the animals treated and no T/C: the source files T/C as zero there, which appears to mark a toxic dose or a test without result, not a measured value. Some survivor counts are full or nearly so, which does not show that the dose was tolerated: the source hardly ever lists a survival T/C far under the control, and the zero likely stands for such cases as well. Survivors were counted at the toxicity check, usually on the fifth day, unless a day is given; later deaths do not show. Schedule codes are those of the source, taken here to give the interval after Q, in days (D) or hours (H), and the number of doses after X. Some entries were tested several times; the values are given in rising order. Additions like (4×) count equal records among those shown. Where survival is the endpoint, the PubChem record calls one and a half times the control and up active, and a quarter to a half above the control has no call in these data; cut-offs in other NCI protocols can differ. Some T/C values are followed by the survivors on the day toxicity was checked, most often the fifth; without a count, all were alive then.

With `CN(C)/N=N/c1[nH]ncc1C(N)=O`, the survivor count runs as follows: (dose: 100.0 mg/kg/injection, schedule: Q01DX009 (ip), vehicle: carboxymethylcellulose (CMC)) 3 of 6; (dose: 200.0 mg/kg/injection, schedule: Q01DX009 (ip), vehicle: carboxymethylcellulose (CMC)) 6 of 6; (dose: 400.0 mg/kg/injection, schedule: Q01DX009 (ip), vehicle: carboxymethylcellulose (CMC)) 5 of 6.
Consider `OCC#CCOCC(O)CCl` (configuration not stated), for which the survivor count (dose: 200.0 mg/kg/injection, schedule: Q01DX009 (ip), vehicle: water) is 8 of 10.
`NCC(c1ccccc1)c1ccccc1`: the survivor count is given as 0 of 10 (dose: 75.0 mg/kg/injection, schedule: Q01DX009 (ip), vehicle: saline); 0 of 10 (dose: 115.0 mg/kg/injection, schedule: Q01DX009 (ip), vehicle: saline); 0 of 10 (dose: 170.0 mg/kg/injection, schedule: Q01DX009 (ip), vehicle: saline).
Consider `Nc1ncn(C2OC(CO)C(O)C2O)c(=O)n1` (configuration not stated), for which the T/C by setting is: (dose: 0.75 mg/kg/injection, schedule: Q01DX009 (ip), vehicle: Klucel (hydroxypropylcellulose) (HPC)) 90 [5 of 6 alive], 100 (2×), 103 % of control [5 of 6 alive]; (dose: 0.75 mg/kg/injection, schedule: Q01DX009 (ip), vehicle: saline, evaluated on day 45) 105 and 128 % of control (2×); (dose: 0.75 mg/kg/injection, schedule: Q01DX009 (ip), vehicle: saline, evaluated on day 60) 94, 97 (2×), 100, 100 [5 of 6 alive], 105, 107, 108, 109, 110 (3×), 111, 112, 114, 115 (2×), 117, 119 (2×), 122 % of control (3×); (dose: 1.5 mg/kg/injection, schedule: Q01DX009 (ip), vehicle: Klucel (hydroxypropylcellulose) (HPC)) 96, 103 [4 of 6 alive], 106, 157 % of control; (dose: 1.5 mg/kg/injection, schedule: Q01DX009 (ip), vehicle: saline, evaluated on day 45) 102, 120, 136 % of control; (dose: 1.5 mg/kg/injection, schedule: Q01DX009 (ip), vehicle: saline, evaluated on day 60) 91, 94 [9 of 10 alive], 96, 100, 104, 105, 107, 109, 111, 112, 113, 114, 116 (2×), 119 (2×), 126 (2×), 127, 142, 144, 147, 153 % of control. The T/C is 93, 100, 106 [5 of 6 alive], 111 % of control under setting [1]; 143 % of control (dose: 3.0 mg/kg/injection, schedule: Q01DX009 (ip), vehicle: saline with Tween-80); 86, 108, 144 % of control (dose: 3.0 mg/kg/injection, schedule: Q01DX009 (ip), vehicle: saline, evaluated on day 45); 93, 94, 100 (2×), 102 (2×), 105, 113 (2×), 114, 119, 120, 124, 125, 126, 131, 142, 144, 147 (3×), 160 % of control (dose: 3.0 mg/kg/injection, schedule: Q01DX009 (ip), vehicle: saline, evaluated on day 60); 103 [5 of 6 alive] and 106 % of control under setting [2]; 140 % of control (dose: 6.0 mg/kg/injection, schedule: Q01DX009 (ip), vehicle: saline with Tween-80). In addition, the T/C runs as follows: (dose: 6.0 mg/kg/injection, schedule: Q01DX009 (ip), vehicle: saline, evaluated on day 45) 121 % of control; (dose: 6.0 mg/kg/injection, schedule: Q01DX009 (ip), vehicle: saline, evaluated on day 60) 90, 100 (3×), 102 [5 of 6 alive], 105, 111, 115, 119, 127, 139, 180 % of control. The survivor count was 6 of 6 (dose: 3.0 mg/kg/injection, schedule: Q01DX009 (ip), vehicle: saline); 10 of 10 (dose: 4.0 mg/kg/injection, schedule: Q01DX009 (ip), vehicle: suspension in saline); 6 of 6 under setting [2]; 5 of 6 (2×), 10 of 10, 6 of 6 (2×) (dose: 6.0 mg/kg/injection, schedule: Q01DX009 (ip), vehicle: saline); 9 of 10 (dose: 8.0 mg/kg/injection, schedule: Q01DX009 (ip), vehicle: suspension in saline).
Turning to `C/C(=C\c1ccccc1)[N+](=O)[O-]`, the survivor count (dose: 100.0 mg/kg/injection, schedule: Q01DX009 (ip), vehicle: saline with Tween-80) is 8 of 10. Besides, the T/C (dose: 100.0 mg/kg/injection, schedule: Q04DX003 (ip), vehicle: saline with Tween-80) is 128 % of control.
Turning to `CC(C)CC(NC(=O)c1ccccc1)C(=O)O` (configuration not stated), the survivor count was 9 of 10 under setting [3] and 10 of 10 (dose: 400.0 mg/kg/injection, schedule: Q01DX009 (ip), vehicle: saline with Tween-80).
For `CC(=O)Nc1ccc2c(ccc3ccccc32)c1`, the survivor count under setting [3] is 10 of 10.
Consider `O=c1cc(-c2ccccc2)[nH]c(-c2ccccc2)c1`, for which the T/C was 125 % of control (dose: 6.25 mg/kg/injection, schedule: Q01DX009 (ip), vehicle: saline with Tween-80); 140 % of control (dose: 12.5 mg/kg/injection, schedule: Q01DX009 (ip), vehicle: saline with Tween-80); 128 % of control (dose: 25.0 mg/kg/injection, schedule: Q01DX009 (ip), vehicle: saline with Tween-80). For the same compound, under “dose: 12.0 mg/kg/injection, schedule: Q01DX009 (ip), vehicle: saline with Tween-80”, the survivor count is recorded as 10 of 10.
As for `CN(Cc1cnc2nc(N)nc(N)c2n1)c1ccc(C(=O)NC(CCC(=O)O)C(=O)O)cc1Br` (configuration not stated), the survivor count reads like this: (dose: 2.5 mg/kg/injection, schedule: Q01DX009 (ip), vehicle: other) 9 of 10; (dose: 5.0 mg/kg/injection, schedule: Q01DX009 (ip), vehicle: other) 7 of 10.
As for `CCCCCCCCNc1cc2c3c(c1)CCCN3CCC2`, the survivor count under setting [1] is listed as 10 of 10.
Take `CCCCCCCCCCCC(c1ccccc1)[N+](C)(C)Cc1ccccc1` (configuration not stated): the survivor count (dose: 4.0 mg/kg/injection, schedule: Q01DX009 (ip), vehicle: saline sonified) is listed as 0 of 6.
In the case of `Cc1cc2oc(C)[n+](Cc3ccccc3)c2cc1C`, the survivor count under setting [3] is 10 of 10.
With `CCCCNC(C)(C)COC(=O)/C=C/c1ccc(OCCCC)cc1`, the survivor count (dose: 200.0 mg/kg/injection, schedule: Q01DX009 (ip), vehicle: saline sonified) was 4 of 6.
As for `CC(=O)[C@]1(O)Cc2c(O)c3c(c(O)c2[C@@H](OC2CC(N)C(O)C(C)O2)C1)C(=O)c1c(O)cccc1C3=O` (some centres not stated), the T/C by setting is: (dose: 0.04 mg/kg/injection, schedule: Q01DX001 (ip), vehicle: water) 135 % of control; (dose: 0.16 mg/kg/injection, schedule: Q01DX001 (ip), vehicle: water) 144 % of control; (dose: 0.32 mg/kg/injection, schedule: Q01DX001 (ip), vehicle: water) 131 and 139 % of control; under setting [4], 129 % of control; (dose: 0.75 mg/kg/injection, schedule: Q01DX001 (ip), vehicle: water) 133 % of control. Moreover, the survivor count runs as follows: under setting [4], 9 of 10; (dose: 1.28 mg/kg/injection, schedule: Q01DX001 (ip), vehicle: water) 2 of 10 and 10 of 10; (dose: 1.5 mg/kg/injection, schedule: Q01DX001 (ip), vehicle: water) 10 of 10; (dose: 3.0 mg/kg/injection, schedule: Q01DX001 (ip), vehicle: water) 9 of 10; (dose: 6.0 mg/kg/injection, schedule: Q01DX001 (ip), vehicle: water) 6 of 10.
Take `C[C@H]1CN1C1=CC(=O)C(N2C[C@@H]2C)=CC1=O`: the T/C was 125 % of control (dose: 2.0 mg/kg/injection, schedule: Q01DX009 (ip), vehicle: saline with Tween-80) and 144 % of control (dose: 4.0 mg/kg/injection, schedule: Q01DX009 (ip), vehicle: saline with Tween-80). Besides, the survivor count (dose: 8.0 mg/kg/injection, schedule: Q01DX009 (ip), vehicle: Klucel (hydroxypropylcellulose) (HPC)) was 10 of 10; the survivor count (dose: 8.0 mg/kg/injection, schedule: Q01DX009 (ip), vehicle: saline with Tween-80) was 6 of 6; the survivor count (dose: 16.0 mg/kg/injection, schedule: Q01DX009 (ip), vehicle: Klucel (hydroxypropylcellulose) (HPC)) was 5 of 10.
For `CCC(C)C(C(=O)OC1CCN(C)CC1)c1ccccc1` (configuration not stated), the survivor count (dose: 100.0 mg/kg/injection, schedule: Q01DX009 (ip), vehicle: saline) was 8 of 10.
